Patent publication US12616760B2 (priority 2020, dated 2026)
Square brackets hold non-standard residues; d marks the D form. * marks the point of attachment. Fmoc = O=C(OCC1c2ccccc2-c2ccccc21)*; Nle = CCCC[C@H](N)C(=O)O; azaGly = NNC(=O)O

Test: general procedure: Fmoc solid-phase peptide synthesis; 2-chlorotrityl chloride resin; DIC/HOBt
Details: whole synthesis

Fmoc-D-Trp-His-D-Ser-Lys-ODmab
crude HPLC purity (analytical RP-HPLC, UV 214 nm, scale 0.32 mmol): approximately 70% purity

Fmoc-His-AsG-Lys-D-Leu-Nle-OH
crude LC-MS purity (analytical RP-HPLC, UV 214 nm): approximately 70% purity

Fmoc-[dW]H[dS]K[azaGly][Nle]-OH
crude HPLC purity (analytical RP-HPLC, UV 214 nm): purity ˜85%

Fmoc-azaGly-D-Trp-His-D-Ser-Lys-ODmab
crude HPLC purity (analytical RP-HPLC, UV 214 nm): 50% purity

cyclo(K[dL][Nle][dW]H[azaGly]) (SMILES CCCC[C@@H]1NC(=O)[C@@H](CC(C)C)NC(=O)[C@H](CCCCN)NC(=O)NNC(=O)[C@H](Cc2c[nH]cn2)NC(=O)[C@@H](Cc2c[nH]c3ccccc23)NC1=O)
isolated yield: 4%
final HPLC purity (214 nm): >99%
isolated mass (scale 0.3 mmol): 9.0 mg
